In patent publication US6492562B1, “Racemic thioesters for production of polyketides” (Kosan Biosciences, Inc., priority 1999, dated 2002):

Test system: Streptomyces coelicolor CH999/pJRJ2
Test: Comparative feeding of diketide N-acylcysteamine thioesters; production of 15-methyl-6-dEB monitored by HPLC
Assay type: cell-based
Conditions: cultures fed 0.5 mM diketide thioester 2 days post-inoculation; production 6 days after feeding; HPLC with evaporative light scattering; preliminary results

In order of rising “Yield of 15-methyl-6-dEB” value:
1. CCCCCCCC(=O)NCCSC(=O)[C@@H](C)[C@H](O)CCC (relative stereo) [Octanoyl, (±)-(2R*,3S*)-2-Methyl-3-hydroxyhexanoate N-Octanoylcysteamine Thioester]  23 mg/L
2. CCC[C@@H](O)[C@H](C)C(=O)SCCNC(C)=O (relative stereo) [Acetyl, (±)-(2R*,3S*)-2-Methyl-3-hydroxyhexanoate N-Acetylcysteamine Thioester]  26 mg/L
3. CCCCCCC(=O)NCCSC(=O)[C@@H](C)[C@H](O)CCC (relative stereo) [Heptanoyl, (±)-(2R*,3S*)-2-Methyl-3-hydroxyhexanoate N-Heptanoylcysteamine Thioester]  27 mg/L
4. CCCC(=O)NCCSC(=O)[C@@H](C)[C@H](O)CCC (relative stereo) [Butyryl, (±)-(2R*,3S*)-2-Methyl-3-hydroxyhexanoate N-Butyrylcysteamine Thioester]  30 mg/L
5. CCCCCC(=O)NCCSC(=O)[C@@H](C)[C@H](O)CCC (relative stereo) [Hexanoyl, (±)-(2R*,3S*)-2-Methyl-3-hydroxyhexanoate N-Hexanoylcysteamine Thioester]  33 mg/L
6. CCC[C@@H](O)[C@H](C)C(=O)SCCNC(=O)CC (relative stereo) [Propionyl, (±)-(2R*,3S*)-2-Methyl-3-hydroxyhexanoate N-Propionylcysteamine Thioester]  35 mg/L
7. CCCCC(=O)NCCSC(=O)[C@@H](C)[C@H](O)CCC (relative stereo) [Pentanoyl, (±)-(2R*,3S*)-2-Methyl-3-hydroxyhexanoate N-Pentanoylcysteamine Thioester]  35 mg/L
